Literature values, collected in patent US20130143913A1, “PROPHYLACTIC OR THERAPEUTIC AGENT FOR NON-ALCOHOLIC STEATOHEPATITIS” (KYORIN PHARMACEUTICAL CO., LTD., priority 2010, published 2013).
For at least one compound, name, drawing or mass did not settle the structure.

Test system: fibrosis
Conditions: phase III (PIVENS), NASH; Non-Patent Document 10; cited from earlier work

CCc1ccc(CCOc2ccc(CC3SC(=O)NC3=O)cc2)nc1 (stereo not shown) [pioglitazone]
improvement on fibrosis: no improvement on fibrosis
